Measurements published in article doi:10.1101/2021.10.29.466550.
Construct, isoform or probe ends are uncertain for at least one entry. At least one verdict rests on a figure or table, not on a statement of the authors.

Tested on: ComFA
Experiment: EMSA

Sequence	binding result (5 nM DNA, the 138 nM Kd is quoted from earlier work)	binding result (5 mM ADP, reverses the weakening by 5 uM ADP)
CCGACCCACCATGCGTTTGTAACCCGACCCACCGTTCGTTCCTACCCACC [50MB ssDNA]	binds	–
TTTTTTTTTTTTTTTTTTTTTTTTTTTTTTTTTTTTTTTTTTTTTTTTTT [50T]	–	binds
